The target of assay [1] is glutamate NMDA receptor NR1 subunit (mouse (endogenous in PAG and spinal cord)) (UniProt P35438). The assay is described as follows: co-IP; as a1, NR1 precipitated from the PAG of sham-operated 129 WT mice, blot for σ1R.
Assay [2] shares this target. Briefly: co-IP; mouse PAG synaptosomal membranes (P2) solubilised in 1% Nonidet P-40, 50 mM Tris-HCl pH 7.5, 50 mM NaCl; biotinylated IgGs against NR1, NR2A or NR2B overnight at 4 °C, streptavidin agarose; reducing SDS-PAGE and Western blot; CD1 and 129 mice, wild type, σ1R^−/− or HINT1^−/−, naive, sham or CCI, with or without S1RA and other drugs icv.

The chains behind the UniProt entries cited, without tags or fusion partners.
UniProt O55242: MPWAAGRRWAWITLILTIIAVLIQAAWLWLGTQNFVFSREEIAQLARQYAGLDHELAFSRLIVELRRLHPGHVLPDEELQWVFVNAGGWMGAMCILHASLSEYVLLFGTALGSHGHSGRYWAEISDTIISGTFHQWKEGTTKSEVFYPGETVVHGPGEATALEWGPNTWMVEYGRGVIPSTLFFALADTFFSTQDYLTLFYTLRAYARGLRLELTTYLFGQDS

Results are given in words; binding and its absence hold for the method and conditions named. Binding seen in cells or lysates may run through a third protein. Some entries that bind do so weakly or less than the wild type.

With “sigma 1 receptor (endogenous) (from UniProt O55242 1-223)”, the binding entry in assay [1] is listed as “binds weakly”; in assay [2], “binds”.

The record behind these values is publication PMC8615847.
